These are yes or no findings as the source states them, for the method shown. In cells and extracts the contact can be indirect. These calls come from enrichment with a bait or labelling near it, and not all partners need be listed.

Sequences of proteins named here, by UniProt entry; tags and fusion partners are left off.
UniProt Q9UL03: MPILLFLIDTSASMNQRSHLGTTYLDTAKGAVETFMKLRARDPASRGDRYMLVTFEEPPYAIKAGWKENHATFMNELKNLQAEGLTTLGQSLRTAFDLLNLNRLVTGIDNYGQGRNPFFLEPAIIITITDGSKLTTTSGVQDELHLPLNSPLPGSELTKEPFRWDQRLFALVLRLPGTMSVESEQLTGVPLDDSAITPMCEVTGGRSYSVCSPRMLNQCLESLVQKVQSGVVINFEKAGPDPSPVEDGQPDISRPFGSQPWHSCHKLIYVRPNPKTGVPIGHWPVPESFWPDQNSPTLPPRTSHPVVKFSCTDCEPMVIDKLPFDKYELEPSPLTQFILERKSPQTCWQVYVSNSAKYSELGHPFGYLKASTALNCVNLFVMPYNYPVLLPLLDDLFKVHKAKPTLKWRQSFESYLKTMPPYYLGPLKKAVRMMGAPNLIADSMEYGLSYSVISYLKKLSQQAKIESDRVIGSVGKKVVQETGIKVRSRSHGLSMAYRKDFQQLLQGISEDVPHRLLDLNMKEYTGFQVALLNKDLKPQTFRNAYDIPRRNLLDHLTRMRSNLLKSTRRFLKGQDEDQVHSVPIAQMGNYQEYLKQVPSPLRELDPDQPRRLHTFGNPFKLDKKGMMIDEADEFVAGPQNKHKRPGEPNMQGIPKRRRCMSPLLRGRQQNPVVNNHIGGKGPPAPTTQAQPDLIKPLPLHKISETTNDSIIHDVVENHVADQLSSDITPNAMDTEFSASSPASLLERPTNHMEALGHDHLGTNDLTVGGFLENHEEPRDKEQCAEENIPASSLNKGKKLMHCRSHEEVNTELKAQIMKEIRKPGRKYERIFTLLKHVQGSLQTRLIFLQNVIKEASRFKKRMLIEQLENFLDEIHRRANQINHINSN
UniProt Q9BQ15: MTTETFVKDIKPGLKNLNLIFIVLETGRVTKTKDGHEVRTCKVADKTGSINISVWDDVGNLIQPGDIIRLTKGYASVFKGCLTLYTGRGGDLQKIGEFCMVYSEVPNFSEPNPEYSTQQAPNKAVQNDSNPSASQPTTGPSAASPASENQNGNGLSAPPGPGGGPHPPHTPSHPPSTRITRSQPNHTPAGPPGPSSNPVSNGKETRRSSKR
UniProt Q7Z333: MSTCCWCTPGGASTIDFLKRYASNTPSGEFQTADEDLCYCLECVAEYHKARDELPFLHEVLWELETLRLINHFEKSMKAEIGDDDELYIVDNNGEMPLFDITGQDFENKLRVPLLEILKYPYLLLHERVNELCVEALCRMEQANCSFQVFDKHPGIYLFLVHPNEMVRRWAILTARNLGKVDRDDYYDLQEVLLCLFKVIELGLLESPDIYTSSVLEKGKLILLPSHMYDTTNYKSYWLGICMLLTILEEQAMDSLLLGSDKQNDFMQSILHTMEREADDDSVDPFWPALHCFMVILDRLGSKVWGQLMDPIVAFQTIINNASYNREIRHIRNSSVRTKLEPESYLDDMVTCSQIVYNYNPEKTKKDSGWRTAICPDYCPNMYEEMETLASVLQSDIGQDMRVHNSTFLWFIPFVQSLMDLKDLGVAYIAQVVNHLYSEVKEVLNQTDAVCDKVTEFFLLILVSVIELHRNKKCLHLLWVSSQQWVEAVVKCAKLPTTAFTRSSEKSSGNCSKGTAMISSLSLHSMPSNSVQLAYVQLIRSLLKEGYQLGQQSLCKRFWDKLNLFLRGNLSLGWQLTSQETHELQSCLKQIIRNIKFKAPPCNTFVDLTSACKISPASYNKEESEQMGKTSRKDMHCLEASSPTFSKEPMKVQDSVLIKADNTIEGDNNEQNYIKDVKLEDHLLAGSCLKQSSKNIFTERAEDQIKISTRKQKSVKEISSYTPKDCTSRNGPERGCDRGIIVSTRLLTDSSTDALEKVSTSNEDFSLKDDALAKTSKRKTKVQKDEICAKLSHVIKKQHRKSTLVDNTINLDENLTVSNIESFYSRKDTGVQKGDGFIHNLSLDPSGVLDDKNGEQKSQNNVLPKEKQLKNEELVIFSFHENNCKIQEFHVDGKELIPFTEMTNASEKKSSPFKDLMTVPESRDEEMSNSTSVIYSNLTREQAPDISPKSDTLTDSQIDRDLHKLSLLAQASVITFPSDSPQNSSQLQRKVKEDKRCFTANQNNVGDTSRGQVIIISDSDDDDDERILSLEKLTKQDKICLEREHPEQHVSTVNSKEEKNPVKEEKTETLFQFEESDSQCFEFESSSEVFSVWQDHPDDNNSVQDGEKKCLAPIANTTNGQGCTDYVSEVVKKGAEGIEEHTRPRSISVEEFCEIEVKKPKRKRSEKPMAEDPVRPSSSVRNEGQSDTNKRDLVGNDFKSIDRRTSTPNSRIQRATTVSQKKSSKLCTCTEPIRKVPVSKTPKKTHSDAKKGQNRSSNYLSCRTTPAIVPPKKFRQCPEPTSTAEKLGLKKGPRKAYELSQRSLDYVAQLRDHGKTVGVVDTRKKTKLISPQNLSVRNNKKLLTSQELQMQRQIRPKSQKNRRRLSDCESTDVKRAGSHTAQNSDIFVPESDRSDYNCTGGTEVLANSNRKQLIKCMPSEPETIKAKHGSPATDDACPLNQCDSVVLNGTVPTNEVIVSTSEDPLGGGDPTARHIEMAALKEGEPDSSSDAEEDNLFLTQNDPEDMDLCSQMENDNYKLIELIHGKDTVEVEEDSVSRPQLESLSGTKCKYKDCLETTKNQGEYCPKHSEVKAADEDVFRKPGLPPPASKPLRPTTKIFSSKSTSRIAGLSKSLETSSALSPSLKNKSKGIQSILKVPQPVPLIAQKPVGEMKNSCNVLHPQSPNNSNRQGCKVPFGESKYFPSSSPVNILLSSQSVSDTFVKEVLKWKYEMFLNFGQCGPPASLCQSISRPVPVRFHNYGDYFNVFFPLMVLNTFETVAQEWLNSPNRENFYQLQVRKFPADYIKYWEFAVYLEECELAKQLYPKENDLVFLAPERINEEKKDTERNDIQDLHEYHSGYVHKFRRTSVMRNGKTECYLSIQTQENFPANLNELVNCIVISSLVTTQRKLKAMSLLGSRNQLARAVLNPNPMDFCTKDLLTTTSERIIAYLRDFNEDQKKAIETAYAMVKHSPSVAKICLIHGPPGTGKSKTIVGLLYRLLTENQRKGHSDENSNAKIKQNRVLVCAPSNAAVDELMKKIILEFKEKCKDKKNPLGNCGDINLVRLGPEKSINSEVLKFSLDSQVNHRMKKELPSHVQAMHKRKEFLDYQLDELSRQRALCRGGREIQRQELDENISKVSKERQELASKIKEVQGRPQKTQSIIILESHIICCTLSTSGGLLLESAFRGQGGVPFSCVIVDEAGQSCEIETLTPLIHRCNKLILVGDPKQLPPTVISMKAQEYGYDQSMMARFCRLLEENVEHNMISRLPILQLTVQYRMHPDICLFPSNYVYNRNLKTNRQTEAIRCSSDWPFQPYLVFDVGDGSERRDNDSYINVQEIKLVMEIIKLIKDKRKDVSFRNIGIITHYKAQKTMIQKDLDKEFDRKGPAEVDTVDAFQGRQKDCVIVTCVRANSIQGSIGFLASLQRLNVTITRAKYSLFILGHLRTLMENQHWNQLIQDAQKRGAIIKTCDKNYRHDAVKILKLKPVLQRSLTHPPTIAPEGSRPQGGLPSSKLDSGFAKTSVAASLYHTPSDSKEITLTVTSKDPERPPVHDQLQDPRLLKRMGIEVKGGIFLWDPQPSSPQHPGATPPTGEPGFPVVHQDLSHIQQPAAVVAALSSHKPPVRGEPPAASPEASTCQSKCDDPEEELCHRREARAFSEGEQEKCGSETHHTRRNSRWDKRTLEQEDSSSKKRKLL
UniProt Q96AH0: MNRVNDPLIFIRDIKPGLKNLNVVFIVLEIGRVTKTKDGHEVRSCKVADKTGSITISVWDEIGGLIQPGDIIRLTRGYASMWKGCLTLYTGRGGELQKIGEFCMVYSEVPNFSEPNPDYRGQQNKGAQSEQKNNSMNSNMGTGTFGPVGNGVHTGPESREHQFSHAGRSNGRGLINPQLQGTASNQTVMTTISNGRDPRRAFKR

This assay concerns the target FLAG-tagged INTS6 (FLAG-INTS6) (UniProt Q9UL03). Nature of the assay: affinity purification with mass spectrometry; anti-FLAG M2 affinity gel from nuclear lysate (0.42 M NaCl extract) of HEK293 cells stably expressing FLAG-INTS6 or mock, washes with 0.5 M KCl and 100 mM KCl, FLAG-peptide elution, mass spectrometry.
“hSSB1 (NABP2) (from UniProt Q9BQ15 1-211)”: the binding entry is listed as “binds”.

Take “senataxin (SETX) (from UniProt Q7Z333 1-2677)”: the binding result is reported as “binds”.

“NABP1 (hSSB2) (from UniProt Q96AH0 1-204)”: the binding result is “binds”.
